Measurements: US5929063A, “Mercapto and seleno derivatives as inhibitors of nitric oxide synthase” (priority 1995, dated 1999)
At least one compound was matched to its structure with a doubt left.

How the values were obtained:
J774 macrophages = experiment: Nitrite production by immunostimulated J774 macrophages (endotoxin 24 h, Griess); format: cell-based, mouse; details: for potency relative to reference compounds L-NMA and L-NAME: J774 macrophages; for inhibition of nitrite production/accumulation, in words: immunostimulated J774 macrophages
Protocol: This example illustrates the effect of selected mercapto derivatives on endotoxin-induced nitrite formation in J774.2 macrophages and on IL-1 gamma-interferon induced nitrite formation in cultured rat arctic smooth muscle cells. J774 macrophage cell lines were obtained from the American Type Culture Collection (ATCC) and were grown using standard methods in Dulbecco's Modified Eagle Medium (DMEM) supplemented with 10% fetal bovine serum, glutamine, penicillin (10,000 U/l) and streptomycin (10,000 U/l). Rat aortic smooth muscle cells (RASM) from Wistar rats were isolated by enzymatic dissociation using standard methods. The cells were positively identified as smooth muscle by indirect immunofluorescent staining for a-actin, using mouse anti-α-actin antibody and anti-mouse IgG fluorescein isothiocyanate (FITC) conjugate. RASM cells were grown in T-75 tissue culture flasks in 50% F12 nutrient medium and 50% Dulbecco's Modified Eagle Medium supplemented with 10% fetal bovine serum, glutamine, penicillin (10,000 U/l) and streptomycin (10,000 U/l). Cells were grown in 96-well plates for measure of nitrite production and cell viability. J774 macrophages were treated with endotoxin (10 μg/ml) for 24 hours; smooth muscle cells were treated with IL-1 (100 U/ml) and gamma-interferon (50 U/ml) for 48 hours.
Concentration of nitrite, the degradation product of NO in the culture medium, was determined by mixing equal volumes of medium with the Griess reagent (1% sulfanilamide/0.1% naphthylethylenediamine dihydrochloride/2.5% H3 PO4). The mixture was incubated for 10 minutes at room temperature to form the chromophore, then optical densities (OD) were determined at 550 nm (OD550). NaNO2 was used as the standard. Spectrophotometric measurements were performed in a dual-wavelength spectrophotometer.

[1] = tested on: rat aortic smooth muscle cells (RASM); experiment: Nitrite production by immunostimulated vascular (rat aortic) smooth muscle cells (IL-1 + gamma-interferon, 48 h); format: cell-based; details: for inhibition of nitrite production, in words: IL-1 and gamma-interferon stimulated smooth muscle cells; for potency relative to reference compounds L-NMA and L-NAME: smooth muscle cells
[2] = Nitrite levels in presence of NO donor SIN-1 (scavenging of nitrite or nitric oxide)
[3] = Mean arterial blood pressure in normal anesthetized rats; format: in vivo, Male Wistar rats; details: i.v. or i.p.
ecNOS = target: T1, ecNOS (Bos taurus, UniProt P29473); experiment: ecNOS activity from intimal scrapings of fresh bovine aortae (conversion of [3H]-L-arginine to [3H]-L-citrulline); format: biochemical
T1 construct: the intimal surface of fresh bovine aortae was scraped and homogenized; from tissue; host or cells: homogenate of intimal scrapings of fresh bovine aortae
Protocol: The intimal surface of fresh bovine aortae was scraped in the presence of homogenation buffer composed of 50 mM Tris-HCl, 0.1 mM ethylenediamine tetraacetic acid (EDTA) and 0.1 mM ethyleneglycol bis (beta-aminoethyl ether) (EGTA). Conversion of [^3 H]-L-arginine to [^3 H]-L-citrulline was measured in the homogenates as follows: cell homogenate (50 μl) was incubated in the presence of [^3 H]-L-arginine (10 μM, 5 kBq/tube), NADPH (2 mM), calmodulin (30 nM), tetrahydrobiopterin (5 μM) and calcium (2 mM) for 20 minutes at 37° C. in N-2-hydroxethyl piperazine-N-2-ethane sulfonic acid (HEPES) buffer (pH 7.5). Reactions were stopped by dilution with 1 ml of ice cold HEPES buffer (pH 5.5) containing EGTA (2 mM) and EDTA (2 mM). Reaction mixtures were applied to Dowex 50W (Na^+ form) columns and the eluted [^3 H]-L-citrulline activity was measured by scintillation counting. bNOS activity was measured using similar methods in homogenates of whole rat brains.
For a preparation rich in ecNOS, the intimal surface of fresh bovine aortae was scraped and homogenized. The homogenization buffer was composed of 50 mM tris-HCL, 0.1 mM EDTA, 0.1 mM EGTA and 1 mM phenylmethylsulfonyl chloride (pH 7.4). […] Conversion of [^3 H]-L-arginine to [^3 H]-L-citrulline was measured in the homogenates as described in Example 3 above.

iNOS = iNOS (Rattus norvegicus, UniProt Q06518); experiment: Inhibition of iNOS activity in tissue homogenates (Table 2); format: biochemical; parameters: bNOS in tissue homogenates; from tissue; host or cells: tissue homogenate

## N=C(N)NCCS [MEG, mercaptoethylguanidine]
J774 macrophages
  potency relative to reference compounds L-NMA and L-NAME: substantially more potent inhibitors than the reference compounds
  inhibition of nitrite production/accumulation, in words: dosedependently inhibited
[1]
  inhibition of nitrite production, in words: dosedependently inhibited
  potency relative to reference compounds L-NMA and L-NAME: substantially more potent inhibitors than the reference compounds
[2]
  interference with measured nitrite levels in the presence of SIN-1: did not interfere with the measured nitrite levels
[3]
  mean arterial blood pressure (MAP) response: only a slight increase in mean arterial blood pressure (MAP)

## N=C(N)NCCCS [MPG, mercaptopropylguanidine]
J774 macrophages
  potency relative to reference compounds L-NMA and L-NAME: substantially more potent inhibitors than the reference compounds
  inhibition of nitrite production/accumulation, in words: dosedependently inhibited
[1]
  inhibition of nitrite production, in words: dosedependently inhibited
  potency relative to reference compounds L-NMA and L-NAME: substantially more potent inhibitors than the reference compounds
[2]
  interference with measured nitrite levels in the presence of SIN-1: did not interfere with the measured nitrite levels
[3]
  mean arterial blood pressure (MAP) response: only a slight increase in mean arterial blood pressure (MAP)

## CSCCNC(=N)N [S-methyl-MEG, S-methyl-mercaptoethylguanidine]
J774 macrophages
  inhibition of nitrite production/accumulation, in words: inhibitors of nitrite accumulation
ecNOS
  inhibition of ecNOS activity, in words: less potent on ecNOS
iNOS
  inhibition of iNOS activity, in words: relative potent inhibitors of iNOS activity
